Measurements published in paper PMC10014312.

Experiments:
[1] = target: T1, Pcdh7 (not stated (lysate of HEK293T cells or zebrafish embryos)) (UniProt O60245); experiment: co-IP; HEK293T cells or zebrafish embryos homogenized in IP buffer (50 mM Tris-HCl pH 7.4, 150 mM NaCl, 2 mM EDTA, 1% NP-40, protease inhibitors); supernatant with beads and antibody overnight (anti-Pcdh7 Santa Cruz sc-517042 named); Western blot; both directions reported
T1 sequence: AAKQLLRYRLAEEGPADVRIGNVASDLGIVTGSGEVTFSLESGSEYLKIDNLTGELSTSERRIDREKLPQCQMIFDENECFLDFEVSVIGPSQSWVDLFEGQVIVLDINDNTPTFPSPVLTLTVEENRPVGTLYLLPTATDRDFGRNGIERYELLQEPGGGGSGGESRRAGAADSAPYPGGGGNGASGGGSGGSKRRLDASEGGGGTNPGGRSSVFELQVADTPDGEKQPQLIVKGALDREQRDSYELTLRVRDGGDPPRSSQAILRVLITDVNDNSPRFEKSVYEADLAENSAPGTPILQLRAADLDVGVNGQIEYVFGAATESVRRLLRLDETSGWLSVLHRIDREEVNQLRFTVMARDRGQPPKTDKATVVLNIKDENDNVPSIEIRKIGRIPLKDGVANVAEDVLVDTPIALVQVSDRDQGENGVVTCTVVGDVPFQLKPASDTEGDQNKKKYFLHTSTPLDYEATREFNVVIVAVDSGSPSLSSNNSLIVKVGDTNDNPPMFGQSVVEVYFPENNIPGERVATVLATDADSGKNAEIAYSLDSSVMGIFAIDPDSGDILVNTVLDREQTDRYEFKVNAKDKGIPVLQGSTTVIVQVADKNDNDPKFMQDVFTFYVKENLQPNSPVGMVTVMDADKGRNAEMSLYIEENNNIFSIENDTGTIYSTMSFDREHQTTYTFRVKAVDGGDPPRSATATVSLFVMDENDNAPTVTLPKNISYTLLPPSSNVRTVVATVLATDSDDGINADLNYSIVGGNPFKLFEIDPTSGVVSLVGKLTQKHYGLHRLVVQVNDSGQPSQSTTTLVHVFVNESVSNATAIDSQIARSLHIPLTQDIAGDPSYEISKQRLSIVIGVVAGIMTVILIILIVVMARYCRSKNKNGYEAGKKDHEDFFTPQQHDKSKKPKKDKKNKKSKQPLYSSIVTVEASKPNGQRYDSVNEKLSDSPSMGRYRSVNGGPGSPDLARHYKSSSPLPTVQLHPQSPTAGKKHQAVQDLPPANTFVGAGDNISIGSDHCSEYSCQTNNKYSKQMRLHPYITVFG

[2] = target: Dopey2 (not stated (lysate of HEK293T cells or zebrafish embryos)); experiment: as above

binding [1]: no binding
Molecule: Dopey2

binding [2]: no binding
B1: Pcdh7 (protein, UniProt O60245 29-1069)
chain: T1 sequence

No constants are given. Whether binding was seen depends on the method and setting. Binding seen in cells or lysates may run through a third protein. One block for each molecule: values may come before it.
